Test results as given in patent US20090029929.
For at least one entry, the source does not settle the construct or the ends of the probe. For part of these data: Results from cells or extracts need not show a direct contact. For part of these data: Negatives hold for the conditions tested. For part of these data: Where a protein sequence is shown, tags need not be part of it.

Columns and labels:
[1] = system: Ets family EBS-1 binding factors (NIH3T3 nuclear extract) (Mus musculus); experiment: competition with a labelled probe; conditions: unlabelled mutant did not compete; protein in an extract; variant of EBS-1 WT probe
[2] = molecular target: T1, GABPα (RA synovial cell nuclear extract) (Homo sapiens) (UniProt Q06546); experiment: EMSA; conditions: supershift in synovial cell nuclear extract; probe presumed EBS-1 WT; protein in an extract; protein details: endogenous, identified by antibody supershift; label: 32P
T1 sequence (looked up, limits assumed): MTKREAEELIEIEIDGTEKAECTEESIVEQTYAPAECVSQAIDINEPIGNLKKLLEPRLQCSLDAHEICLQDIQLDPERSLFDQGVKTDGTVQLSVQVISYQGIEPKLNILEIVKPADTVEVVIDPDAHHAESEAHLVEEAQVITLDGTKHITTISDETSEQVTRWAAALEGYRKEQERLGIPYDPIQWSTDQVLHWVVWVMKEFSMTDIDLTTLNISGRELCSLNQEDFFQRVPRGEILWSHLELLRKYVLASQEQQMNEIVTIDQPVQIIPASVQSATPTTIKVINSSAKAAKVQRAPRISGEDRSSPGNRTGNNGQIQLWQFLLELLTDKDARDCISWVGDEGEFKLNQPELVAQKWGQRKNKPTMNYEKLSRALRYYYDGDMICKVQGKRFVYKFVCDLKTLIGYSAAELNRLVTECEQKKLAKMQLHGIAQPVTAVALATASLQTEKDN

[3] = system: Ets family EBS-1 binding factors (NIH3T3 nuclear extract) (Mus musculus); experiment: EMSA; conditions: protein in an extract; label: 32P
[4] = system: GABPα/GABPβ complex; experiment: activity in cells; conditions: GABPα/β transactivation of luciferase reporter in cells; protein translated in vitro; protein details: in vitro translation products
[5] = molecular target: T2, GABPα (in cells) (UniProt Q00422); experiment: activity in cells; conditions: GABPα increased transcription in NIH3T3; promoter length not stated for this figure; protein in cells
T2 sequence (looked up, limits assumed): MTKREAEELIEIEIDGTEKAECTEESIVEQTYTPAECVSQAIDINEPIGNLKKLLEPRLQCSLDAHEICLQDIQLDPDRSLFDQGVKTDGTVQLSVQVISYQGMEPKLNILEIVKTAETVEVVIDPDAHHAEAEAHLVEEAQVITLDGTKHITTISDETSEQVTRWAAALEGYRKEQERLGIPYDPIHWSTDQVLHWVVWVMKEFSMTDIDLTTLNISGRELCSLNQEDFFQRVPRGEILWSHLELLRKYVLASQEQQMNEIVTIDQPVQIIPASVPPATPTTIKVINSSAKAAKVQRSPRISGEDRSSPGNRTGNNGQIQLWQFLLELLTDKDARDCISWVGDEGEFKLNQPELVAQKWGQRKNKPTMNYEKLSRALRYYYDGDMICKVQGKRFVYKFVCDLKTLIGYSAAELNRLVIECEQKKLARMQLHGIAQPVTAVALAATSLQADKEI

[6] = molecular target: T3, Fli-1 (in cells) (UniProt P26323); experiment: activity in cells; conditions: Fli-1 inhibited transcription in NIH3T3; promoter length not stated for this figure; protein in cells
T3 sequence (looked up, limits assumed): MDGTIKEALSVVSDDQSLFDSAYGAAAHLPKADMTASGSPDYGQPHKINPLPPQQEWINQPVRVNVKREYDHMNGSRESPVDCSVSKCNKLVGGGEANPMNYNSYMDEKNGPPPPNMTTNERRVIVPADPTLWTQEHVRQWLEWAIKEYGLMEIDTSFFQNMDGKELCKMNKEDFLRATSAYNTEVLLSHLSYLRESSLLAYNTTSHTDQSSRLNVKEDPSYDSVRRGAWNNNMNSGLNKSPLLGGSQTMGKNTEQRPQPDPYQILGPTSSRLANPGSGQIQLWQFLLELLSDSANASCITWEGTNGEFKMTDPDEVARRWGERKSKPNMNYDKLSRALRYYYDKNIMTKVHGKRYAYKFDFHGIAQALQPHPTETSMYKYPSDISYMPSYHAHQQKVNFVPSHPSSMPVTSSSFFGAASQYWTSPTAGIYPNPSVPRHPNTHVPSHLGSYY

## CCCCGCGCCGCCGTAAGTGT (double strand) [EBS-1 MT probe (G-76T)]
[1]
  binding result: no binding

## CCCCGCGCCGCCGGAAGTGT (double strand) [EBS-1 WT probe]
[2]
  binding result: binds
[3]
  binding result: binds

## CGACCACACGTCACAGCTCTCGCTCGTTCCGGTTGCTCGCGCAGGGGGTGGGGAGTGTTGTTAACCGGAGCGGCTGCCGCAGTCGCGGTGATTGAGCGTACTCCGCCGCGCCCCGCGCCGCCGGAAGTGAGGTGTCTTACCCCCGAAGTTCCGGTTCGCAGGGGGTGGGGAGTGTTGTTAACCGGAGCGGCTGCCGCAGTCGCGGTGATTGAGCGTGCTCGCGGCGCTGGGCTCCTGGTGAGTGGGCCTGGTCCTGATTGGGGTTGGGGGGTCGGCGTCTAGGACCTTGTCCTTTGGGGTCACTGCGATCAGCCCGCCCCGCTGCGTTCGGCCGCCAGTTTTCGGCCTGTCAGATGGCTGGAGACCTTAGGCGGCGGCGCGGCCACCGTTCCAGAGGCCGGGCCCCGCCTGCGAGGTTCGCAACTCCTAGCGTTCACAGGTGCGCGACTGTGAGGCGACCTGACTGGTTCTCAGCCCCGCCGCCGCACCCTGGCGGTCGGCCGTTTCTCCGGTTCTCAGAGTGGACACTGCTGGGGGCGGGGGGGGGGGCAGGGTTCCAGACTGACGTACCCCGATGGGCGCGCGTCTGCGCTGACCACCCTGGCACAGCTGTCACTGGTTGTGTCGCCTTCTCAAGCTGTGCCCTCTGCACCTTGCCTCCTCCACCCCTGGCGGGCCCAGCGAACCTGCCTCTAAAGCCTATCATCCCAGCTCCTTCAGAGGGTCAGCGGTGGCAGCCCCCCTCCTCCTAACTTTGCCTCAGTGACTCCCTAGAGGAGGCGCCTTGGCAGACAGCGTGGAAGAGCCCTAGATTTGAAACGAGATTGATCCAAGTTCTAGGCCTTGCATCAGTGTGAGCCTCTAACCCCTTTGAGTCCTAGTTTCTCGTTTGTGAAACAGGGAGTATATGCTGTTTTGAATCTAATGGCTGTCAAGGTGAAATGAGTGTTTGCCCTTACACTCTGCCAGGGACTGTGCTAGGTTTACATAGTGTGGATATCACAAATGTCATTTTCCTTGTGCAGGTCTCTGGGCCAGGGCG (double strand) [Synoviolin promoter -200/+843]
[4]
  activity on this sequence (fold activation): 3
[5]
  activity on this sequence: active
[6]
  activity on this sequence: active
